Results from patent publication US20050261190A1.
These are yes or no findings as the source states them, for the method shown. For part of these data: In cells and extracts the contact can be indirect. Some entries that bind do so weakly or less than the wild type.

The chains behind the UniProt entries cited, without tags or fusion partners. Where a name states a change or a piece, a line headed by the entry shows the natural chain unless it says otherwise. Residues count along the entry.
UniProt P11142, residues 2-646: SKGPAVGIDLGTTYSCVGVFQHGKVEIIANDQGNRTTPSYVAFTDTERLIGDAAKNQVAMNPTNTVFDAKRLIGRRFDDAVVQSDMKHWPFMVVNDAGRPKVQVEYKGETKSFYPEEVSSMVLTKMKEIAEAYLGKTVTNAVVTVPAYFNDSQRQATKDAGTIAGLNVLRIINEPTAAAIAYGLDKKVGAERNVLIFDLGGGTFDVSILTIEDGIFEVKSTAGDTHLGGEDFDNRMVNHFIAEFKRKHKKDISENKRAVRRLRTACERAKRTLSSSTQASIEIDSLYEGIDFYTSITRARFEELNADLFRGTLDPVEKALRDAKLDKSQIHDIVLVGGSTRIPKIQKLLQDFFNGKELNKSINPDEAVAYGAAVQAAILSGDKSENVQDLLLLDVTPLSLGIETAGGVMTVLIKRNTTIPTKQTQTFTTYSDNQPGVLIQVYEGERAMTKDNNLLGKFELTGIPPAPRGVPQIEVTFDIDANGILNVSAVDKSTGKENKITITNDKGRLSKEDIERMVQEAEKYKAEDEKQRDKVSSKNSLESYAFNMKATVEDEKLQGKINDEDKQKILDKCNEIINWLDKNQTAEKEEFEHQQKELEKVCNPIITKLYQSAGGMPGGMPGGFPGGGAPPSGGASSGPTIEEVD
UniProt P0DMV8: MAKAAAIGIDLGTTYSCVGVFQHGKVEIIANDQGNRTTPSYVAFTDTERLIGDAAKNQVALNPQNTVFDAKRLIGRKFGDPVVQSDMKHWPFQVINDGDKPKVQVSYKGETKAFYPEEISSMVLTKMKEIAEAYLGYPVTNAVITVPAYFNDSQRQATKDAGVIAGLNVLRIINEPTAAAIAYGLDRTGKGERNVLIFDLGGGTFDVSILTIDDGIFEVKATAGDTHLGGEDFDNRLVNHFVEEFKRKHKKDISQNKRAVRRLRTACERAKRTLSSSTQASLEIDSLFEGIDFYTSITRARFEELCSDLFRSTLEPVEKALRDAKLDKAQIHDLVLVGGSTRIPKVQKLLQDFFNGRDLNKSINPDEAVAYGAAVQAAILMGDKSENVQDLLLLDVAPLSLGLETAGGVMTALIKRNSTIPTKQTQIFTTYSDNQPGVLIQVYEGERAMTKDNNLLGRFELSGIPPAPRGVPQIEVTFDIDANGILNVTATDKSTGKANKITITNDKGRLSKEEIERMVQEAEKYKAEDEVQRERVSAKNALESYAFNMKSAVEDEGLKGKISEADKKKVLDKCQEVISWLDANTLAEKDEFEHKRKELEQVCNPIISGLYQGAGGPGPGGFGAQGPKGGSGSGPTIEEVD
GST-Hsp70 (full Hsp70, 1-640): residues 1-640 of P0DMV8
GST-Hsp70 (1-120): residues 1-120 of P0DMV8
heat shock protein 70 inducible (Hsp70), endogenous: residues 2-641 of P0DMV8
UniProt P08622, residues 2-376: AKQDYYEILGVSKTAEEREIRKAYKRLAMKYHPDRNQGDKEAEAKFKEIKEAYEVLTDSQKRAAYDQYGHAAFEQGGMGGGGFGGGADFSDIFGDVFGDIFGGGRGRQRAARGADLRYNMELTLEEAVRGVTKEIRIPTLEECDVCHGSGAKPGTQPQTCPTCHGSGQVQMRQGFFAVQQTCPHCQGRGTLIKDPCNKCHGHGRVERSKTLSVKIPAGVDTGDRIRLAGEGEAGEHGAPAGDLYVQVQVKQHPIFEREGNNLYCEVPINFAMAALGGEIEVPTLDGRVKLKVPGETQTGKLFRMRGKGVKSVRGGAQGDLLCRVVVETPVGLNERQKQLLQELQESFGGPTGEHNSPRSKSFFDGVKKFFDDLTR
UniProt Q9UNN5: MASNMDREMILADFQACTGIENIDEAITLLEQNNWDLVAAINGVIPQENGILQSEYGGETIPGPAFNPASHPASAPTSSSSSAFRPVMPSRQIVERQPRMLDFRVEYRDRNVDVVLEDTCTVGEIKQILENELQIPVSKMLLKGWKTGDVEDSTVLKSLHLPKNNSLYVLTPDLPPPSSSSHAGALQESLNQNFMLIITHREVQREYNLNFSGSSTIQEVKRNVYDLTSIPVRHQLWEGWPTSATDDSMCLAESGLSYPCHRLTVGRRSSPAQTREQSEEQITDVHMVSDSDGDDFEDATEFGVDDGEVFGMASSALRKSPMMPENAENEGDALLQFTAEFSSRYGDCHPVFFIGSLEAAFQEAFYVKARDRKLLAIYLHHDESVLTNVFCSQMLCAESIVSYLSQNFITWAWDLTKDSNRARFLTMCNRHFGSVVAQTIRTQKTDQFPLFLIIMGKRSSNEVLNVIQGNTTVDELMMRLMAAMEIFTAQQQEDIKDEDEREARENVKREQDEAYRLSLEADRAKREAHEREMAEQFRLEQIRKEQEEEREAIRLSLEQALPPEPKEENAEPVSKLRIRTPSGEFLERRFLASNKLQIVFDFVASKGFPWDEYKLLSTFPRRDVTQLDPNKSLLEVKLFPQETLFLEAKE

Experiments:
[1] = target: heat shock protein 70 cognate (Hsc70), endogenous (human) (UniProt P11142); assay: co-immunoprecipitation with anti-Flag M2 agarose from HEK293T lysate, western blot
[2] = target: heat shock protein 70 inducible (Hsp70), endogenous (human) (UniProt P0DMV8); assay: as above
[3] = target: heat shock protein 70 cognate (Hsc70), endogenous (human) (UniProt P11142); assay: co-immunoprecipitation from HEK293T lysate, western blot (FIG. 3)
[4] = target: heat shock protein 70 inducible (Hsp70), endogenous (human) (UniProt P0DMV8); assay: as above
[5] = target: heat shock protein 70 cognate (Hsc70), endogenous (human) (UniProt P11142); assay: co-immunoprecipitation from HEK293T lysate, western blot (FIG. 3C)
[6] = target: heat shock protein 70 inducible (Hsp70), endogenous (human) (UniProt P0DMV8); assay: as above
[7] = target: heat shock protein 70 cognate (Hsc70), endogenous (human) (UniProt P11142); assay: immunoprecipitation with polyclonal anti-hFAF1 antibody, western blot (FIG. 2)
[8] = target: heat shock protein 70 inducible (Hsp70), endogenous (human) (UniProt P0DMV8); assay: as above
[9] = target: heat shock protein 70 cognate (Hsc70), endogenous (human) (UniProt P11142); assay: immunoprecipitation with polyclonal anti-hFAF1 antibody from HEK293T cells, western blot
[10] = target: heat shock protein 70 inducible (Hsp70), endogenous (human) (UniProt P0DMV8); assay: as above
[11] = target: DnaJ (E. coli) (UniProt P08622); assay: co-purification from E. coli lysate
[12] = target: GST-Hsp70 (full Hsp70, 1-640) (human) (UniProt P0DMV8); assay: GST pull-down on glutathione sepharose without ATP, immunoblot
[13] = target: GST-Hsp70 (1-120) (human) (UniProt P0DMV8); assay: GST pull-down on glutathione sepharose in the presence of 10 mM ATP, immunoblot
[14] = target: GST-Hsp70 (1-120) (human) (UniProt P0DMV8); assay: GST pull-down with GST-Hsp70 deletion mutants, with or without 10 mM ATP (FIG. 4)

Measured: binding

Flag-hFAF1[1-201] (from UniProt Q9UNN5 1-201)
binds: [1] | [2]

Flag-hFAF1[1-345] (from UniProt Q9UNN5 1-345)
binds: [1] | [2]

Flag-hFAF1[82-650] (from UniProt Q9UNN5 82-650)
binds: [1] | [2]

Flag-tagged hFAF1 fragment, amino acid 82-180 (from UniProt Q9UNN5 82-180)
binds: [3] | [4] | [5] | [6]

endogenous hFAF1 (from UniProt Q9UNN5 1-650)
binds: [7] | [8] | [9] | [10]

purified recombinant hFAF1 (from UniProt Q9UNN5 1-650)
binds: [11] | [12] | [13] | [14]
